Source: US11698357B2, “Method for screening, isolating and purifying analytes” (CHANG GUNG UNIVERSITY, priority 2019, dated 2023)

Tested on: MES-SA cells
Assay: ODEP manipulation: maximum velocity of moving light bar that can manipulate drug-treated cells
Format: cell-based, human
From the text: For the electric conditions, the magnitude and frequency of the ODEP were set at 10 V and 2 MHz, which can reduce cell aggregation and accelerate cell sorting and isolation, as shown in FIG. 2A. In addition, the ODEP manipulation force, a net force between the ODEP force and friction force, generated on the manipulated cells (i.e., the live and dead cancer cells with and without drug resistance) was then experimentally evaluated. Briefly, in a steady state, the ODEP manipulation force on a cell is balanced by the viscous drag of the surrounding fluid. […]
Therefore, according to Stokes' law, the ODEP manipulation force generated on the cells can then be experimentally evaluated through measurements of the maximum velocity of a moving light bar that can manipulate these cells (i.e., live and dead MES-SA cells and Dx5 cells). […] After the live MES-SA and Dx5 cells were treated with 5.0 μg ml^−1 doxorubicin for 48 hours, the maximum velocity of the moving light bar that can manipulate live Dx5 cells was measured to be 206.7±41.0 μm s^−1, showing no significant difference (p>0.05) with that of the MES-SA and Dx5 cells before drug treatment. […]

Compound: COc1cccc2c1C(=O)c1c(O)c3c(c(O)c1C2=O)C[C@@](O)(C(=O)CO)C[C@@H]3O[C@H]1C[C@H](N)[C@H](O)[C@H](C)O1 [doxorubicin]
- maximum velocity of the moving light bar that can manipulate cells (drug-treated dead MES-SA cells, 5.0 μg ml^−1 doxorubicin for 48 hours): 20.6±6.8 μm s^−1
- maximum velocity of the moving light bar that can manipulate cells (live MES-SA cells after 5.0 μg ml^−1 doxorubicin for 48 hours, 10 V, 2 MHz): 78.3±54.4 μm s^−1
